The text below walks through data of publication PMC12661795.

Chains of the proteins cited; added tags and fusions are not shown.
UniProt O77059: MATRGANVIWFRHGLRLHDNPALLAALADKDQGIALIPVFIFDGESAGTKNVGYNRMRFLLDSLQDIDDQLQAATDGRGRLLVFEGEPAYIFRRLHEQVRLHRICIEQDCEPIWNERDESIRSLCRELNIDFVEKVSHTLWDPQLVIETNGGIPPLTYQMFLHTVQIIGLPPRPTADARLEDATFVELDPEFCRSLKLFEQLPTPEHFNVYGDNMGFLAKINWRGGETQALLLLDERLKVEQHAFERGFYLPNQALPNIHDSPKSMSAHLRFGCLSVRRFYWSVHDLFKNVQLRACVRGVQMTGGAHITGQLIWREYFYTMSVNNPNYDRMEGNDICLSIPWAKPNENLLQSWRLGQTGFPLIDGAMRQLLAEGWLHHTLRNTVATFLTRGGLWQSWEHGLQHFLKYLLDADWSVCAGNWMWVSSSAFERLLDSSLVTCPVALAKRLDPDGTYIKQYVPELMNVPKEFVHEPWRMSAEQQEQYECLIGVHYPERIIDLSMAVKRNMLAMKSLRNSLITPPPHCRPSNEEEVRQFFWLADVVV

Assay [1] concerns the target HACRY, a hemagglutinin (HA)-tagged form of Drosophila CRYPTOCHROME (dCRY) (Drosophila melanogaster) (UniProt O77059). Description: affinity purification with mass spectrometry; Co-IP and MS from heads of flies expressing HACRY in TIM-positive cells, at ZT0 and after a 15 min light pulse at the same ZT; 40-kDa species identified.
Assay [2] shares this target. The assay can be described thus: affinity purification with mass spectrometry; Co-IP of HACRY from head extracts of repo > HACRY flies (glia), 50 male heads per sample, 12:12 LD, collected at ZT0 and ZT1; CantonS controls as filter; 3 independent samples.
Assay [3] has the same target. The assay can be described thus: affinity purification with mass spectrometry; Co-IP of HACRY from head extracts of GMR > HACRY flies (photoreceptors), 50 male heads per sample, 12:12 LD, collected at ZT0 and ZT1; CantonS controls as filter; 3 independent samples.

No constants are given. Whether binding was seen depends on the method and setting. In cells and extracts the contact can be indirect. Here binding means that the protein was enriched with, or labelled near, the bait; the list need not be complete.

B1: RNA-binding protein SQUID (protein, UniProt Q08473 1-344)
chain: MAENKQVDTEINGEDFTKDVTADGPGSENGDAGAAGSTNGSSDNQSAASGQRDDDRKLFVGGLSWETTEKELRDHFGKYGEIESINVKTDPQTGRSRGFAFIVFTNTEAIDKVSAADEHIINSKKVDPKKAKARHGKIFVGGLTTEISDEEIKTYFGQFGNIVEVEMPFDKQKSQRKGFCFITFDSEQVVTDLLKTPKQKIAGKEVDVKRATPKPENQMMGGMRGGPRGGMRGGRGGYGGRGGYNNQWDGQGSYGGYGGGYGGYGAGGYGDYYAGGYYNGYDYGYDGYGYGGGFEGNGYGGGGGGNMGGGRGGPRGGGGPKGGGGFNGGKQRGGGGRQQRHQPY
For the molecule B1, the binding result in assay [1], in assay [2] and in assay [3] was “binds” each time.

B2: PEP (protein, UniProt P41073 1-716)
chain: MVSVKVNGNPQNRLVNNAKVNGNMAFRGNQNRNRNFGGGNNNYGGPMGANRMGGMNMSPWESQNPGGGQFGNNMRQGGGQMNAQAINLANNLLNNLFRNQNPPSLLDLPRGGGGMGNRNQRGGPMVSRGGGAGNRLNNRRGQGGGFQNRGATGSGPKPPPKQGGGGIRKQNAFDRAKKLLAKNANQNKKKEPTPGEKKIESPTKESPYASVPNDMFYCHLCKKHMWDANSFENHIKGRTHLMMREGIEESYRLKANMIRQEAKIAEQLKSIEFDRLKRMGKSKQRQLDYCTMCDLNFHGHISTHRKSEGHLQLKKFLHPKCIECNKEFATRIDYDTHLLSAEHLKKAAENNTKVGERKRQTLPISTEEEETRDLRLPQKRKKKPVKKEGEAADGEAKKEGAGDGEGAEGDEAEGEEAKEGEEAADETKEGDELNESQEEEEVALPVDPEDCILDFNDGDEIPSEVDTRLPKYNWQRAVGPGLISKLECYECSVCSKFFDTEVTAEIHSRTATHHRNFLKFINEKSSDTKIAQKRAAAALEENERKKRKVEEAEAPAAEGAAEETTEGAEGELYDPSEATGDDEDVEMVDDNAEGEGEGEGDEEAEAEVEEDGAGQDNGEEEMEAQEEEGQEGEQEPEPEPAPVQTPAPAEPAPPAKTPAKTPTKAAAPAAVASPAAAATSADASPSPAKKATPARAAAGAKATPQRQRARGRYNRY
As to B2, the binding entry in assay [3] is reported as “binds”.

B3: HRB87F (protein, UniProt P48810 1-385)
chain: MAEQNDSNGNYDDGEEITEPEQLRKLFIGGLDYRTTDDGLKAHFEKWGNIVDVVVMKDPKTKRSRGFGFITYSQSYMIDNAQNARPHKIDGRTVEPKRAVPRQEIDSPNAGATVKKLFVGGLRDDHDEECLREYFKDFGQIVSVNIVSDKDTGKKRGFAFIEFDDYDPVDKIILQKTHSIKNKTLDVKKAIAKQDMDRQGGGGGRGGPRAGGRGGQGDRGQGGGGWGGQNRQNGGGNWGGAGGGGGFGNSGGNFGGGQGGGSGGWNQQGGSGGGPWNNQGGGNGGWNGGGGGGYGGGNSNGSWGGNGGGGGGGGGFGNEYQQSYGGGPQRNSNFGNNRPAPYSQGGGGGGFNKGNQGGGQGFAGNNYNTGGGGQGGNMGGGNRRY
In the case of B3, the binding result in assay [3] is given as “binds”.

B4: HRB27C (protein, UniProt P48809 1-421)
chain: MEEDERGKLFVGGLSWETTQENLSRYFCRFGDIIDCVVMKNNESGRSRGFGFVTFADPTNVNHVLQNGPHTLDGRTIDPKPCNPRTLQKPKKGGGYKVFLGGLPSNVTETDLRTFFNRYGKVTEVVIMYDQEKKKSRGFGFLSFEEESSVEHVTNERYINLNGKQVEIKKAEPRDGSGGQNSNNSTVGGAYGKLGNECSHWGPHHAPINMMQGQNGQMGGPPLNMPIGAPNMMPGYQGWGTSPQQQQYGYGNSGPGSYQGWGAPPGPQGPPPQWSNYAGPQQTQGYGGYDMYNSTSTGAPSGPSGGGSWNSWNMPPNSAGPTGAPGAGAGTATDMYSRAQAWATGGPSTTGPVGGMPRTGPGNSASKSGSEYDYGGYGSGYDYDYSNYVKQEGASNYGAGPRSAYGNDSSTQPPYATSQAV
B4: the binding entry in assay [2] and in assay [3] was “binds” in each case.
